US20230181638A1, “IMMUNOGENIC PEPTIDES WITH NEW OXIDOREDUCTASE MOTIFS” (IMCYSE SA, priority 2020, published 2023)
Not every detail of the peptide structures is certain; ends, links or a residue may be inferred. Where a SMILES comes first, the peptide text is derived from it.

Test system: Experimental Auto-Immune Encephalomyelitis (EAE)
Experiment: therapeutic administration, EAE clinical score in mice
Assay type: in vivo
Conditions: 30 μg s.c. with Alum on Days 4, 9, 14, 19, vs IMCY-0189 group
Description: The study used a total of 64 female C57BL/6 mice (Taconic Biosciences, 9 weeks old on Day 0). Mice were acclimated for 7 days prior to the first injection. Mice were assigned to groups in a balanced manner to achieve similar average weight across the groups at the start of the study.
Dosing of all mice was performed once on each of the days indicated in Table 6, s.c., at a volume of 0.05 mL/site, each mouse receiving injection at two sites, for a total of 0.1 mL/mouse/dosing day. IMCY-0189, IMCY-0453 or IMCY-0455 peptide total close was […] per administration.
For Saline treatment, 0.9% NaCl solution was prepared at each dosing day. Peptide's preparation was performed as described in example 3.
AUC, MMS, inflammation and demyelination, and NF-L levels quantification data were analyzed by performing Ordinary one-way ANOVA. Adjustment for multiplicity was performed using Holm-Sidak's method. Significant differences are referred as follows: *p<0.05, **p<0.01, ***p<0.001, ****p<0.0001.
EAE induction and scoring were performed as described in example 3.
EAE development was evaluated by comparing clinical EAE readouts for all groups to the negative control (Saline) group.

Structure (SMILES): CC(C)C[C@H](NC(=O)[C@H](Cc1c[nH]cn1)NC(=O)[C@@H](NC(=O)[C@@H](NC(=O)[C@H](CCCNC(=N)N)NC(=O)[C@H](CO)NC(=O)[C@H](Cc1ccccc1)NC(=O)[C@@H]1CCCN1C(=O)[C@H](CO)NC(=O)[C@H](CCCNC(=N)N)NC(=O)[C@H](Cc1ccc(O)cc1)NC(=O)[C@H](Cc1c[nH]c2ccccc12)NC(=O)CNC(=O)[C@H](CS)NC(=O)[C@H](CCCNC(=N)N)NC(=O)[C@H](CS)NC(=O)[C@@H](N)CCCCN)C(C)C)C(C)C)C(=O)N[C@@H](Cc1ccc(O)cc1)C(=O)N[C@@H](CCCNC(=N)N)C(N)=O [IMCY-0453, KCRC-GWYRSPFSRVVHLYR-NH2] (H-KCRCGWYRSPFSRVVHLYR-NH2)
- all clinical readouts (disease onset, end score, AUC and MMS) as compared to IMCY-0189: statistically significantly improved
